From PMC11789017, “Preventing inappropriate signals pre- and post-ligand perception by a toggle switch mechanism of ERECTA” (Proceedings of the National Academy of Sciences of the …, 2025)
No constants are given. Whether binding was seen depends on the method and setting. Tags and fused reporters may be left off the sequences shown.

What was measured:
[1] = target: T1, GST-PUB30 (U-box E3 ligase PUB30) (UniProt Q058P4); assay: BLI; recombinantly purified GST-BKI1 or GST-PUB30 and MBP-ER_CD variants at seven concentrations (156.25, 312.5, 625, 1,250, 2,500, 5,000 and 10,000 nM); three independent experiments; who was immobilised is in SI Appendix; both purified
T1 sequence: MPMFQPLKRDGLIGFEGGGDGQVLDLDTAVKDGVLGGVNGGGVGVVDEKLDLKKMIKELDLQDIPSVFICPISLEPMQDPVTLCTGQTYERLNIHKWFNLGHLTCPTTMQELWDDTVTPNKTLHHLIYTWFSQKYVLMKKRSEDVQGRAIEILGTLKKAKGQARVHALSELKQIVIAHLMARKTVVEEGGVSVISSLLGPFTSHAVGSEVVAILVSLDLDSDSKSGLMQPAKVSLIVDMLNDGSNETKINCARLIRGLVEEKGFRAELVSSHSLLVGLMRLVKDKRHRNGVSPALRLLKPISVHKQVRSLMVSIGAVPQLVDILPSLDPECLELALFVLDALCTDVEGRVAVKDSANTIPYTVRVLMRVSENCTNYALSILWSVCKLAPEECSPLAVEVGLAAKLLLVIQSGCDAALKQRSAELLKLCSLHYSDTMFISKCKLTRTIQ

[2] = target: T2, GST-BKI1 (BRI1 KINASE INHIBITOR 1) (UniProt Q9FMZ0); assay: as above
T2 sequence: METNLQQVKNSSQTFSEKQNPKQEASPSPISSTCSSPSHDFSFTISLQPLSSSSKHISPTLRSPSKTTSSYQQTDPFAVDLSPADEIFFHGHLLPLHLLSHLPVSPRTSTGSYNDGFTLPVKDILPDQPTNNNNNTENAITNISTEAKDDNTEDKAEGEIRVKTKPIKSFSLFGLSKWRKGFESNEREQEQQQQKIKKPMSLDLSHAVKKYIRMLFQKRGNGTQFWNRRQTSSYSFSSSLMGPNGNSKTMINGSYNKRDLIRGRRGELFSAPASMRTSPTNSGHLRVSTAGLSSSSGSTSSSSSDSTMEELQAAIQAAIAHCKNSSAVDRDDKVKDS

MBP-ER_CD_(ΔC43) (Arabidopsis) (domain or fragment)
binding [1]: no binding (tested: up to 10,000 nM)
binding [2]: no binding (tested: up to 10,000 nM)
